# Data reported in paper PMC8041284, “Tunable Methacrylamides for Covalent Ligand Directed Release Chemistry” (Journal of the American Chemical Society, 2021).
# Assay: GSH reactivity assay for model compounds (LC/MS)
# Format: physicochemical
# Conditions: 5 mM GSH, 100 μM acrylamide, 37 °C
compound,measurement,value
C=C(COC(=O)Oc1ccc([N+](=O)[O-])cc1)C(=O)NCc1ccccc1 [1m],Substitution/Addition (reaction type with GSH),preferably underwent the substitution reaction
